Results on six molecules are retold here after PMC7226812.

Sequences of proteins named here, by UniProt entry; tags and fusion partners are left off. A change or cut given only in a name is not applied to a line headed by its entry.
UniProt Q13619: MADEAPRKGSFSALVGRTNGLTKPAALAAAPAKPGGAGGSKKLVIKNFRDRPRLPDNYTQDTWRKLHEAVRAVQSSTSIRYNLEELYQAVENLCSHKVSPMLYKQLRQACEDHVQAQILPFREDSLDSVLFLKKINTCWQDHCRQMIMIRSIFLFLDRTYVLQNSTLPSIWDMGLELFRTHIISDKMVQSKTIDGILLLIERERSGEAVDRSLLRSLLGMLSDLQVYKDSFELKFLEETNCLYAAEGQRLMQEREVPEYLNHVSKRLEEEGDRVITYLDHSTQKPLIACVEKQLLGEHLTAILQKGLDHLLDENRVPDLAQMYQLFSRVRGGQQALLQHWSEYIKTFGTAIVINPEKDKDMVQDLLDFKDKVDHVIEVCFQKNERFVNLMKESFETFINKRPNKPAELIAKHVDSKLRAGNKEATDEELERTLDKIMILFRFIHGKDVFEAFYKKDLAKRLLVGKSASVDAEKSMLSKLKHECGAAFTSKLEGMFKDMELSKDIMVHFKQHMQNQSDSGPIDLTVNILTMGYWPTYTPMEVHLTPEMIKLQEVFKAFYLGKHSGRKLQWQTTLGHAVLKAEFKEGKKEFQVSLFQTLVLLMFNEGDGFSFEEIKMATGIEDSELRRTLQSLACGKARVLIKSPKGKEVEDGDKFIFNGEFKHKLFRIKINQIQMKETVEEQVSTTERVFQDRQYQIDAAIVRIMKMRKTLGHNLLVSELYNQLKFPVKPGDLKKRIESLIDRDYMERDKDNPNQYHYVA

B1: DDB2, Q92466 1-427 (protein)
chain: MAPKKRPETQKTSEIVLRPRNKRSRSPLELEPEAKKLCAKGSGPSRRCDSDCLWVGLAGPQILPPCRSIVRTLHQHKLGRASWPSVQQGLQQSFLHTLDSYRILQKAAPFDRRATSLAWHPTHPSTVAVGSKGGDIMLWNFGIKDKPTFIKGIGAGGSITGLKFNPLNTNQFYASSMEGTTRLQDFKGNILRVFASSDTINIWFCSLDVSASSRMVVTGDNVGNVILLNMDGKELWNLRMHKKKVTHVALNPCCDWFLATASVDQTVKIWDLRQVRGKASFLYSLPHRHPVNAACFSPDGARLLTTDQKSEIRVYSASQWDCPLGLIPHPHRHFQHLTPIKAAWHPRYNLIVVGRYPDPNFKSCTPYELRTIDVFDGNSGKMMCQLYDPESSGISSLNEFNPMGDTLASAMGYHILIWSQEEARTRK
B2: WDR26, Q9H7D7 1-661 (protein)
chain: MQANGAGGGGGGGGGGGGGGGGGGGQGQTPELACLSAQNGESSPSSSSSAGDLAHANGLLPSAPSAASNNSNSLNVNNGVPGGAAAASSATVAAASATTAASSSLATPELGSSLKKKKRLSQSDEDVIRLIGQHLNGLGLNQTVDLLMQESGCRLEHPSATKFRNHVMEGDWDKAENDLNELKPLVHSPHAIVVRGALEISQTLLGIIVRMKFLLLQQKYLEYLEDGKVLEALQVLRCELTPLKYNTERIHVLSGYLMCSHAEDLRAKAEWEGKGTASRSKLLDKLQTYLPPSVMLPPRRLQTLLRQAVELQRDRCLYHNTKLDNNLDSVSLLIDHVCSRRQFPCYTQQILTEHCNEVWFCKFSNDGTKLATGSKDTTVIIWQVDPDTHLLKLLKTLEGHAYGVSYIAWSPDDNYLVACGPDDCSELWLWNVQTGELRTKMSQSHEDSLTSVAWNPDGKRFVTGGQRGQFYQCDLDGNLLDSWEGVRVQCLWCLSDGKTVLASDTHQRIRGYNFEDLTDRNIVQEDHPIMSFTISKNGRLALLNVATQGVHLWDLQDRVLVRKYQGVTQGFYTIHSCFGGHNEDFIASGSEDHKVYIWHKRSELPIAELTGHTRTVNCVSWNPQIPSMMASASDDGTVRIWGPAPFIDHQNIEEECSSMDS
B3: DCAF9 (protein, UniProt Q8N5D0 1-677)
chain: MAKVNITRDLIRRQIKERGALSFERRYHVTDPFIRRLGLEAELQGHSGCVNCLEWNEKGDLLASGSDDQHTIVWDPLHHKKLLSMHTGHTANIFSVKFLPHAGDRILITGAADSKVHVHDLTVKETIHMFGDHTNRVKRIATAPMWPNTFWSAAEDGLIRQYDLRENSKHSEVLIDLTEYCGQLVEAKCLTVNPQDNNCLAVGASGPFVRLYDIRMIHNHRKSMKQSPSAGVHTFCDRQKPLPDGAAQYYVAGHLPVKLPDYNNRLRVLVATYVTFSPNGTELLVNMGGEQVYLFDLTYKQRPYTFLLPRKCHSSGEVQNGKMSTNGVSNGVSNGLHLHSNGFRLPESRGHVSPQVELPPYLERVKQQANEAFACQQWTQAIQLYSKAVQRAPHNAMLYGNRAAAYMKRKWDGDHYDALRDCLKAISLNPCHLKAHFRLARCLFELKYVAEALECLDDFKGKFPEQAHSSACDALGRDITAALFSKNDGEEKKGPGGGAPVRLRSTSRKDSISEDEMVLRERSYDYQFRYCGHCNTTTDIKEANFFGSNAQYIVSGSDDGSFFIWEKETTNLVRVLQGDESIVNCLQPHPSYCFLATSGIDPVVRLWNPRPESEDLTGRVVEDMEGASQANQRRMNADPLEVMLLNMGYRITGLSSGGAGASDDEDSSEGQVQCRPS
B4: Zinc Finger E-Box Binding Homeobox 2 (protein, UniProt O60315 1-1214)
chain: MKQPIMADGPRCKRRKQANPRRKNVVNYDNVVDTGSETDEEDKLHIAEDDGIANPLDQETSPASVPNHESSPHVSQALLPREEEEDEIREGGVEHPWHNNEILQASVDGPEEMKEDYDTMGPEATIQTAINNGTVKNANCTSDFEEYFAKRKLEERDGHAVSIEEYLQRSDTAIIYPEAPEELSRLGTPEANGQEENDLPPGTPDAFAQLLTCPYCDRGYKRLTSLKEHIKYRHEKNEENFSCPLCSYTFAYRTQLERHMVTHKPGTDQHQMLTQGAGNRKFKCTECGKAFKYKHHLKEHLRIHSGEKPYECPNCKKRFSHSGSYSSHISSKKCIGLISVNGRMRNNIKTGSSPNSVSSSPTNSAITQLRNKLENGKPLSMSEQTGLLKIKTEPLDFNDYKVLMATHGFSGTSPFMNGGLGATSPLGVHPSAQSPMQHLGVGMEAPLLGFPTMNSNLSEVQKVLQIVDNTVSRQKMDCKAEEISKLKGYHMKDPCSQPEEQGVTSPNIPPVGLPVVSHNGATKSIIDYTLEKVNEAKACLQSLTTDSRRQISNIKKEKLRTLIDLVTDDKMIENHNISTPFSCQFCKESFPGPIPLHQHERYLCKMNEEIKAVLQPHENIVPNKAGVFVDNKALLLSSVLSEKGMTSPINPYKDHMSVLKAYYAMNMEPNSDELLKISIAVGLPQEFVKEWFEQRKVYQYSNSRSPSLERSSKPLAPNSNPPTKDSLLPRSPVKPMDSITSPSIAELHNSVTNCDPPLRLTKPSHFTNIKPVEKLDHSRSNTPSPLNLSSTSSKNSHSSSYTPNSFSSEELQAEPLDLSLPKQMKEPKSIIATKNKTKASSISLDHNSVSSSSENSDEPLNLTFIKKEFSNSNNLDNKSTNPVFSMNPFSAKPLYTALPPQSAFPPATFMPPVQTSIPGLRPYPGLDQMSFLPHMAYTYPTGAATFADMQQRRKYQRKQGFQGELLDGAQDYMSGLDDMTDSDSCLSRKKIKKTESGMYACDLCDKTFQKSSSLLRHKYEHTGKRPHQCQICKKAFKHKHHLIEHSRLHSGEKPYQCDKCGKRFSHSGSYSQHMNHRYSYCKREAEEREAAEREAREKGHLEPTELLMNRAYLQSITPQGYSDSEERESMPRDGESEKEHEKEGEDGYGKLGRQDGDEEFEEEEEESENKSMDTDPETIRDEEETGDHSMDDSSEDGKMETKSDHEEDNMEDGM
B5: PAFAH1B1 (protein, UniProt P43034 1-410)
chain: MVLSQRQRDELNRAIADYLRSNGYEEAYSVFKKEAELDVNEELDKKYAGLLEKKWTSVIRLQKKVMELESKLNEAKEEFTSGGPLGQKRDPKEWIPRPPEKYALSGHRSPVTRVIFHPVFSVMVSASEDATIKVWDYETGDFERTLKGHTDSVQDISFDHSGKLLASCSADMTIKLWDFQGFECIRTMHGHDHNVSSVAIMPNGDHIVSASRDKTIKMWEVQTGYCVKTFTGHREWVRMVRPNQDGTLIASCSNDQTVRVWVVATKECKAELREHEHVVECISWAPESSYSSISEATGSETKKSGKPGPFLLSGSRDKTIKMWDVSTGMCLMTLVGHDNWVRGVLFHSGGKFILSCADDKTLRVWDYKNKRCMKTLNAHEHFVTSLDFHKTAPYVVTGSVDQTVKVWECR
B6: structural maintenance of chromosomes protein 6 (protein, UniProt Q96SB8 1-1091)
chain: MAKRKEENFSSPKNAKRPRQEELEDFDKDGDEDECKGTTLTAAEVGIIESIHLKNFMCHSMLGPFKFGSNVNFVVGNNGSGKSAVLTALIVGLGGRAVATNRGSSLKGFVKDGQNSADISITLRNRGDDAFKASVYGNSILIQQHISIDGSRSYKLKSATGSVVSTRKEELIAILDHFNIQVDNPVSVLTQEMSKQFLQSKNEGDKYKFFMKATQLEQMKEDYSYIMETKERTKEQIHQGEERLTELKRQCVEKEERFQSIAGLSTMKTNLESLKHEMAWAVVNEIEKQLNAIRDNIKIGEDRAARLDRKMEEQQVRLNEAEQKYKDIQDKLEKISEETNARAPECMALKADVVAKKRAYNEAEVLYNRSLNEYKALKKDDEQLCKRIEELKKSTDQSLEPERLERQKKISWLKERVKAFQNQENSVNQEIEQFQQAIEKDKEEHGKIKREELDVKHALSYNQRQLKELKDSKTDRLKRFGPNVPALLEAIDDAYRQGHFTYKPVGPLGACIHLRDPELALAIESCLKGLLQAYCCHNHADERVLQALMKRFYLPGTSRPPIIVSEFRNEIYDVRHRAAYHPDFPTVLTALEIDNAVVANSLIDMRGIETVLLIKNNSVARAVMQSQKPPKNCREAFTADGDQVFAGRYYSSENTRPKFLSRDVDSEISDLENEVENKTAQILNLQQHLSALEKDIKHNEELLKRCQLHYKELKMKIRKNISEIRELENIEEHQSVDIATLEDEAQENKSKMKMVEEHMEQQKENMEHLKSLKIEAENKYDAIKFKINQLSELADPLKDELNLADSEVDNQKRGKRHYEEKQKEHLDTLNKKKRELDMKEKELEEKMSQARQICPERIEVEKSASILDKEINRLRQKIQAEHASHGDREEIMRQYQEARETYLDLDSKVRTLKKFIKLLGEIMEHRFKTYQQFRRCLTLRCKLYFDNLLSQRAYCGKMNFDHKNETLSISVQPGEGNKAAFNDMRALSGGERSFSTVCFILSLWSIAESPFRCLDEFDVYMDMVNRRIAMDLILKMADSQRFRQFILLTPQSMSSLPSSKLIRILRMSDPERGQTTLPFRPVTQEEDDDQR

No constants are given. Whether binding was seen depends on the method and setting. In cells and extracts the contact can be indirect. These calls come from enrichment with a bait or labelling near it, and not all partners need be listed. No binding means not detected with the bait.

The first experiment deals with cullin 4A (human (endogenous in human hepatocytes of chimeric mouse liver)), Q13619. In words: affinity purification with mass spectrometry. The following applies: remark: other sources report otherwise.
As to B1, the binding entry is recorded as “no binding”. Same read-out and setting: next, B2: “binds”.

In another experiment the target is cullin 4A (human (endogenous in human hepatocytes of chimeric mouse liver)) (UniProt Q13619). In words: affinity purification with mass spectrometry.
Conditions: not given
B3: the binding result is listed as “no binding”. In the case of B4, the binding result was “binds”. The same measure, in the same setting: then B5, with “binds”. Still for that read-out and setting: next, B6: “binds”.
